Laboratory results as given in US8183048B2, “Assay for screening/ranking antioxidants based on their effects on membrane sterol lateral organization” (Temple University- Of the Commonwealth System of Higher …, priority 2007, dated 2012).
“Also recorded” adds a separate entry of the source.

Assay: Steady-state anisotropy of DHE fluorescence vs antioxidant dose
Assay type: physicochemical
Settings: DMPC/DHE LUVs, 21.0 mol % DHE, 37° C., FIG. 7
Experimental: Steady-state anisotropy measurements were made at 37° C. on an ISS K2 fluorometer (ISS, Champaign, Ill.). Excitation wavelength used was 325 nm, with a bandwidth of 8 nm. Emission was measured through a KV-408 filter with λex=399 nm. Blank readings from membranes without probes were subtracted from the sample readings. Steady-state anisotropy (r) gives information about membrane packing in the vicinity of the probe molecule. […] DMPC/DHE LUVs (21.0 mol % DHE) were incubated with increasing doses of either ascorbic acid or ascorbyl palmitate, and steady-state anisotropy measurements were recorded (FIG. 7). The addition of water-soluble ascorbic acid had no effect on the anisotropy value, even at high doses. […] Assuming that the fluorescence lifetime of DHE is invariant with antioxidant dose, the anisotropy data (FIG. 7) indicate a decrease in membrane free volume as more ascorbyl palmitate molecules partition into the bilayer. The insertion of the palmitate chain also changes membrane composition, thus altering the actual sterol mole percentage in the membrane and perturbing the dynamic equilibrium of membrane lateral organization. As [ascorbyl palmitate] increases, the lipid bilayer becomes increasingly perturbed, and membrane lateral organization is disrupted. Therefore, the biphasic change in lag phase at Cr is abolished or obliterated above Cth.

CCCCCCCCCCCCCCCC(=O)OC[C@H](O)[C@H]1OC(=O)C(O)=C1O [ascorbyl palmitate]
effect of increasing antioxidant dose on steady-state anisotropy (r) of DHE fluorescence: significant increase
effect of increasing antioxidant dose on steady-state anisotropy (r) of DHE fluorescence (listed as Ascorbyl palmitate): steady increase

O=C1O[C@H]([C@@H](O)CO)C(O)=C1O [ascorbic acid]
effect of increasing antioxidant dose on steady-state anisotropy (r) of DHE fluorescence: almost invariant; also recorded: no effect
